Assay results from PubChem BioAssay AID493014 (National Center for Advancing Translational Sciences (NCATS), 2011).
The list shows a part of the results. Further columns of the screen follow, without active or inactive calls. The list favours compounds with an active or inconclusive main result. Words in brackets tell the shape of the fitted curve; partial curves, single points and poor fits give uncertain potencies.

Test: qHTS Assay to Find Inhibitors of Chronic Active B-Cell Receptor Signaling
Details: ABC-DLBCL IkBa-CBG/CBR reporter, luminescence ratio (green luciferase fused to IkBa over red control in TMD8 lymphoma cells), 4 h
Method in brief: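 TMD8 ABC-DLBCL cells carrying doxycycline-inducible green luciferase fused to IkappaBalpha plus unfused red luciferase were exposed to compounds (up to 46 uM) for 4 hrs at 37C. Activity came from the overlap-corrected green/red luminescence ratio.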

[1] = measured here: CBR red luminescence, cell number
[2] = measured here: IkBa-CBG green luminescence

| SMILES | AC50 [1] | AC50 [2] |
| --- | --- | --- |
| CCOC(=O)C1(CCCc2ccccc2)CCN(CC(O)CO)CC1 (stereo not drawn) | 11.2 µM [falling, partial curve, poor fit] | – |
| COc1ccc(CCNC(=O)CSc2nnc3ccc(-c4cccnc4)nn23)cc1 | 0.562 µM [falling, full curve] | – |
| Cc1cccc(NC2=C(NC(=O)c3ccccc3)C(=O)c3ccccc3C2=O)c1 | 29.1 µM [falling, single point] | – |
| O=C(NCc1cc([N+](=O)[O-])ccc1O)c1cccc(NS(=O)(=O)c2ccccc2)c1 | 11.2 µM [falling, partial curve] | – |
| O=C(CN1C(=O)COc2ccccc21)N(Cc1cccnc1)Cc1cccc(F)c1 | 20.6 µM [rising, single point] | – |
| CC(C)(C)c1csc(NC(=O)c2c(F)c(F)c(F)c(F)c2F)n1 | 14.1 µM [falling, partial curve] | – |
| COc1ccc(S(=O)(=O)Nc2cc(C)ccc2OC)cc1C | 20.6 µM [falling, partial curve, poor fit] | – |
| COc1ccc(CC(=O)Nc2nc(-c3ccc(F)c(F)c3)cs2)cc1 | 35.5 µM [falling, single point] | – |
| O=C1C(=O)N(c2cccc(Cl)c2)C(c2ccccc2[N+](=O)[O-])/C1=C(\O)c1ccccc1 (stereo not drawn) | 20 µM [falling, single point] | – |
| COc1ccccc1NC(=O)Nc1ccc2c(c1)OCCO2 | 8.91 µM [falling, partial curve, poor fit] | – |
| COc1ccc(-c2nc3ccccn3c2/N=C/c2ccc(OC)c(OC)c2)cc1O | – | 3.26 µM [falling, partial curve, poor fit] |
| COc1cc(NC(=S)NCc2ccco2)cc(OC)c1OC | 2.06 µM [rising, partial curve] | – |
| Cc1sc2ncn(CC(=O)OC(C)C)c(=O)c2c1C | 0.0651 µM [rising, full curve, poor fit] | – |
| CC(C)=CCCC1(C)C=Cc2c(c(C)cc3c2[nH]c2cc(O)ccc23)O1 (stereo not drawn) | 7.94 µM [rising, partial curve, poor fit] | – |
| Cc1ccccc1C(=O)N1CCC(C(=O)Nc2nc3ccc(F)cc3s2)CC1 | 16.4 µM [falling, partial curve] | 9.2 µM [rising, partial curve, poor fit] |
| Cc1ccc2nc(=O)c(NNc3ccccc3)cnc2c1 | 4.61 µM [falling, partial curve] | – |
| C/C(=N\NC(=O)c1ccccc1F)c1cccc(NC(=O)c2ccccc2)c1 | 7.08 µM [falling, full curve, poor fit] | – |

2 entries from above, as labelled records:
COc1ccc(-c2nc3ccccn3c2/N=C/c2ccc(OC)c(OC)c2)cc1O
  AC50 [2]: 3.26 µM [falling, partial curve, poor fit]
COc1cc(NC(=S)NCc2ccco2)cc(OC)c1OC
  AC50 [1]: 2.06 µM [rising, partial curve]
